# Results reported in article PMC3401594 (International Journal of Pharmaceutics, 2009).
# Protein sequences, listed by entry. Tags and fused reporters are not part of them.
# UniProt P08183, whole entry: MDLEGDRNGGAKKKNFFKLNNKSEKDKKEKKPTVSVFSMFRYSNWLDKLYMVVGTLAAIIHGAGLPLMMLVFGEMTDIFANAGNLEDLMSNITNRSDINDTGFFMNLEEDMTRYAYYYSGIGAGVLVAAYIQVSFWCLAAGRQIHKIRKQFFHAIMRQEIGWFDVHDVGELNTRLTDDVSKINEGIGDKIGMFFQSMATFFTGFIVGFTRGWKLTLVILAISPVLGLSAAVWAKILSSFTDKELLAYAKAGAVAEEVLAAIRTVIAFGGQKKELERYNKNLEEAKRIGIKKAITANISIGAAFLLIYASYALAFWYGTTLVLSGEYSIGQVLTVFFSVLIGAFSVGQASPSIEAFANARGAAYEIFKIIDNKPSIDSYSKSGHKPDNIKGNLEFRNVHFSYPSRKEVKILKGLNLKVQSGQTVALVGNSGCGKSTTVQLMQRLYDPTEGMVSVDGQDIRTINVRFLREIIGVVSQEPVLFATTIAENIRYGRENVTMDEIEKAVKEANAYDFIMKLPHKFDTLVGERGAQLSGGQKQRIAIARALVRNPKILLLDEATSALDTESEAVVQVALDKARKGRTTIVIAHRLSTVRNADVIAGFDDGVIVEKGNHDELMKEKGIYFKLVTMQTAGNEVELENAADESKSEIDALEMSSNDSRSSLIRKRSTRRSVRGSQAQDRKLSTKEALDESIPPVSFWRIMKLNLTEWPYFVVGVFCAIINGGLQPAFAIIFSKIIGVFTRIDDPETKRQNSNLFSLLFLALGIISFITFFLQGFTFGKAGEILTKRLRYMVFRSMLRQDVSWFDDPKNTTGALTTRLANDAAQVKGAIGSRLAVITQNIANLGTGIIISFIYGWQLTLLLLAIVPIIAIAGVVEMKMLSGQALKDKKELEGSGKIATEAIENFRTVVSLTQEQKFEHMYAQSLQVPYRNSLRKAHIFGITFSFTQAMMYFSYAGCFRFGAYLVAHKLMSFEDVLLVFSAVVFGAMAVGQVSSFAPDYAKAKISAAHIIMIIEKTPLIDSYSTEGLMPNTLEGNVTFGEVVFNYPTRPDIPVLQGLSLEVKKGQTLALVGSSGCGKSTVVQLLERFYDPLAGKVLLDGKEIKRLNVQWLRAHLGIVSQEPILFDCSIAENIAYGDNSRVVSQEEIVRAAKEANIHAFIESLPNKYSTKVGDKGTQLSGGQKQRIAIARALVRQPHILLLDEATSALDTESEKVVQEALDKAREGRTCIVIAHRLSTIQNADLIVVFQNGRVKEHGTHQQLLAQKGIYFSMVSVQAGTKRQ
# Marks after values point to notes of the source that are not given here.
# Tests used:
# recombinant human P-gp = recombinant human P-gp (Homo sapiens, UniProt P08183)
# [1] = ref Casy and Parfitt, 1986; cited from earlier work
# [2] = Intravenous to intraventricular ED10 ratio; details: from values of ref Casy and Parfitt, 1986
compound,measurement,setting,value
CN1CC[C@]23c4c5ccc(O)c4O[C@H]2[C@@H](O)C=C[C@H]3[C@H]1C5 [Morphine],P-gp affinity status from P-gp ATPase assay,recombinant human P-gp,P-gp substrate
same,Fold stimulation of basal P-gp-ATPase activity,recombinant human P-gp; human,1.54 ± 0.08 ^b fold
same,Rate of ATP consumption versus non-treated control (significance),recombinant human P-gp; human,significantly different (p < 0.05)
same,Intravenous to intraventricular ED10 ratio,[1],910
same,ED10 ratio relative to that of meperidine,[2],~ 107 fold
